# Some results were stated once for a whole list of compounds, not compound by compound.
# System: C. albicans strain CAI4 (ATCC MYA-684)
# Assay: in vitro bioassay of inhibitory activity against C. albicans yeast-to-mycelium transition
# Format: cell-based, Candida albicans
# Conditions: 37° C., 6 h, GS medium; as shown in FIG. 2
# Description: An in vitro bioassay of the inhibitory activity of the fatty acids of FIG. 2 against C. albicans yeast-to-mycelium transition was carried out.
# C. albicans strain CAI4 (ATCC MYA-684) was incubated at 28° C. for 24 h with shaking in a glucose salts (GS) medium (5 g of glucose, 0.26 g of Na2HPO4.12H2O, 0.66 g of KH2PO4, 0.88 g of MgSO4.7H2O, 0.33 g of NH4Cl, 16 μg of biotin per liter) supplemented with 0.1 mg/ml of uridine.
# All the C. albicans cells remained, in the yeast form under these conditions. The yeast cells were washed three times with GS medium before use and then were dispersed in GS medium to give a solution with a final OD600 of 1.0.
# The test compounds set out in FIG. 2 were diluted to the indicated concentrations with GS medium and were added to 100 μl of the washed C. albicans culture in 96-well microtitre plates, mixed and incubated at 37° C. for 6 hours (h).
# The percentages of yeast cells and germ tubes (filamentous form) were determined microscopically by counting about 300 cells from three replicates. Inhibitory activity was defined as the mole concentration that gave a minimum of 90% inhibition (IC90) relative to control.
row,SMILES,yeast-to-mycelium inhibitory activity
1,"CC(C)CCCCCCC/C=C\C(=O)O [Compound 1, cis-11-methyl-2-dodecenoic acid]",useful yeast-to-mycelium inhibitory activity
2,"CC(C)CCCCCCC/C=C/C(=O)O [Compound 2, trans-11-methyl-2-dodecenoic acid]",useful yeast-to-mycelium inhibitory activity
3,"CCCCCCCCC/C=C\C(=O)O [Compound 7, cis-2-dodecenoic acid]",useful yeast-to-mycelium inhibitory activity
